# Source: publication PMC9220848
# Chains of the proteins cited; added tags and fusions are not shown.
# UniProt Q16637: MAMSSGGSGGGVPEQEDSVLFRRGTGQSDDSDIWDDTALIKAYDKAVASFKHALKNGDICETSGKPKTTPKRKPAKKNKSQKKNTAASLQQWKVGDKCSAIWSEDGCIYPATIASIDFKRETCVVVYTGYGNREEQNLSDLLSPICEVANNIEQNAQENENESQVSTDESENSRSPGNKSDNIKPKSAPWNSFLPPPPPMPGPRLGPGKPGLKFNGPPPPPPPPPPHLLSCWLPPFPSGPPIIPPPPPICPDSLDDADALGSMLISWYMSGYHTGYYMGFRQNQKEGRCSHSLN
# UniProt P97801: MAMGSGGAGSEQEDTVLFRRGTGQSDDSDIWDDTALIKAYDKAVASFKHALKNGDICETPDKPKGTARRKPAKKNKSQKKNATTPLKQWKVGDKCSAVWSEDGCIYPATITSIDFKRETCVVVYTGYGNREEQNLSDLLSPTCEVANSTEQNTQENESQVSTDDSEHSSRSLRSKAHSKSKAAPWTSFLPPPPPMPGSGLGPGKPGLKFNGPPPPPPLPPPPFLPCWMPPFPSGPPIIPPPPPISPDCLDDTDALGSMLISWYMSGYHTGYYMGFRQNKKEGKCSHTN
# These are yes or no findings as the source states them, for the method shown. Binding seen in cells or lysates may run through a third protein. Some entries that bind do so weakly or less than the wild type.
# How the values were obtained:
# [1] = target: intact Bap1 (N-terminal flag-tagged full-length construct) (not stated (human or mouse cDNA cloned)) (UniProt Q92560); assay: co-IP; semi-endogenous co-immunoprecipitation from lysates of HEK293T cells transfected with intact or truncated Bap1; IP buffer 150 mM NaCl, 50 mM Tris, 0.5% Nonidet P-40; overnight at 4°C; immunoblot
# [2] = target: T1, BRCA1-associated protein-1 (Bap1), endogenous in mouse FAPs (mouse (endogenous in FAPs)) (UniProt Q99PU7); assay: co-IP; endogenous reciprocal immunoprecipitation from lysates of freshly isolated mouse FAPs with pre-immune IgG, anti-Bap1 or anti-SMN antibodies; IP buffer 150 mM NaCl, 50 mM Tris, 0.5% Nonidet P-40; overnight at 4°C; immunoblot
# T1 sequence: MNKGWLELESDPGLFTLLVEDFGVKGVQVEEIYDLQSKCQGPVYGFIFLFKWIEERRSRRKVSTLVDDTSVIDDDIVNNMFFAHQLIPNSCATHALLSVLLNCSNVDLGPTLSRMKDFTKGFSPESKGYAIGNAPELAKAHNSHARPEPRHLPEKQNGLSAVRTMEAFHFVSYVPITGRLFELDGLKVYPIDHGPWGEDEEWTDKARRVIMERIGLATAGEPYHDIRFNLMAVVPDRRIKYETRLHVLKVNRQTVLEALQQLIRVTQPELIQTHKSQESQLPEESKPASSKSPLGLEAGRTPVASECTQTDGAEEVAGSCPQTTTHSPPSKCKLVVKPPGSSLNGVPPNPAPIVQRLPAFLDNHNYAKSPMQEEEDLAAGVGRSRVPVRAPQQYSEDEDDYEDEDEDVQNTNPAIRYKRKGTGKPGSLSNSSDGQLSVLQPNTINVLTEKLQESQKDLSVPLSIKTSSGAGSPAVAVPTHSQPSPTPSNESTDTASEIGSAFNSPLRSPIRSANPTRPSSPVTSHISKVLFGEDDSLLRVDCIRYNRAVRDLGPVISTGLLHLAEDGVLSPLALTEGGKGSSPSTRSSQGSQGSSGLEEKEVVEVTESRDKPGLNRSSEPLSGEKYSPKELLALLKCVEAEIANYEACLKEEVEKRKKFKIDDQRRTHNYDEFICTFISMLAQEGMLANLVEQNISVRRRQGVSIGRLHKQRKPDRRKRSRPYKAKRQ
Substance,binding [1],binding [2]
"survival of motor neuron (SMN) protein, endogenous in HEK293T cells (from UniProt Q16637 1-294)",binds,–
"survival of motor neuron (SMN) protein, endogenous in mouse FAPs (from UniProt P97801 1-288)",–,binds
